This list was built around the results that the source calls inconclusive (neither active nor inactive); the mix of calls is not that of the screen. Where the call is inconclusive, the potency comes from a doubtful curve fit. Active and inactive are the calls of the source. Calls follow the shape of the dose curve; as a rule, active = well fitted curve in the direction sought with a large enough effect; inconclusive = small, poorly fitted or top-dose-only effect, or another doubt; inactive = no such curve, though single readings can be large; an effect the other way counts as inactive or inconclusive.
Key:
[1] = Quantitative High-Throughput drug screen in 47 multiple myeloma cell lines against the NCATS MIPE library collection: FR4_PLB cell viability assay (AID 1918924; also: nearly all actives have a fitted effect of over 35% in size)
In short: (§1)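 Myeloma cells (500 per well) were exposed to MIPE 4.0 compounds by pin transfer and incubated 48 hours at 37C, 5% CO2. Viability was read as ATP by CellTiter-Glo luminescence, normalised to DMSO (100%) and media-only (0%) wells.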

[2] = Quantitative High-Throughput drug screen in 47 multiple myeloma cell lines against the NCATS MIPE library collection: Delta47_JCRB cell viability assay (AID 1918925; also: nearly all actives have a fitted effect of over 45% in size); conditions: Delta47 myeloma viability, CellTiter-Glo ATP, 48 h; viability (% of DMSO): at 45.8 µM (top of the series)
In short: (§2)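 CellTiter-Glo ATP luminescence gave viability after 48 h compound treatment at 37C of 500 multiple myeloma cells per well. Normalisation used DMSO-only wells as 100% and media-only wells as 0% viability; primary qHTS of approved and investigational drugs.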

[3] = Quantitative High-Throughput drug screen in 47 multiple myeloma cell lines against the NCATS MIPE library collection: EJM_DSMZ cell viability assay (AID 1918926; also: nearly all actives have a fitted effect of over 30% in size)
In short: as §2

[4] = Quantitative High-Throughput drug screen in 47 multiple myeloma cell lines against the NCATS MIPE library collection: AMO1_DSMZ cell viability assay (AID 1918927; also: nearly all actives have a fitted effect of over 30% in size)
In short: as §2

[5] = Quantitative High-Throughput drug screen in 47 multiple myeloma cell lines against the NCATS MIPE library collection: ARP1_JJKsccF8 cell viability assay (AID 1918928; also: nearly all actives have a fitted effect of over 40% in size)
In short: (§3)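 Viability screen: myeloma cells (500/well) incubated 48 h at 37 °C, humidified 5% CO2, with pinned library compounds; CellTiter-Glo added, luminescence read; DMSO wells set 100%, medium-only wells 0%.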

[6] = Quantitative High-Throughput drug screen in 47 multiple myeloma cell lines against the NCATS MIPE library collection: Karpas620_DSMZ cell viability assay (AID 1918959); conditions: Karpas620 myeloma viability, CellTiter-Glo ATP luminescence, 48 h; viability (% of DMSO): at 45.8 µM (top of the series); also: nearly all actives have a fitted effect of over 30% in size
In short: as §1

[7] = Quantitative High-Throughput drug screen in 47 multiple myeloma cell lines against the NCATS MIPE library collection: Karpas417_ECACC cell viability assay (AID 1918961); conditions: Karpas417 myeloma viability, CellTiter-Glo ATP luminescence, 48 h; viability (% of DMSO): at 45.8 µM (top of the series)
In short: as §2

[8] = Quantitative High-Throughput drug screen in 47 multiple myeloma cell lines against the NCATS MIPE library collection: KHM11_PLB cell viability assay (AID 1918962); conditions: KHM11 myeloma cell viability, CellTiter-Glo ATP luminescence, 48 h; viability, % of DMSO control: at 45.8 µM (top of the series); also: nearly all actives have a fitted effect of over 35% in size
In short: as §1

[9] = Quantitative High-Throughput drug screen in 47 multiple myeloma cell lines against the NCATS MIPE library collection: JIM1_ECACC cell viability assay (AID 1918964); conditions: JIM1 myeloma viability, CellTiter-Glo ATP luminescence, 48 h; viability (% of DMSO): at 45.8 µM (top of the series)
In short: as §2

[10] = Quantitative High-Throughput drug screen in 47 multiple myeloma cell lines against the NCATS MIPE library collection: INA6_PLB cell viability assay (AID 1918965; also: nearly all actives have a fitted effect of over 55% in size); conditions: INA6 myeloma viability, CellTiter-Glo ATP luminescence, 48 h; viability (% of control): at 45.8 µM (top of the series)
In short: as §2

[11] = Quantitative High-Throughput drug screen in 47 multiple myeloma cell lines against the NCATS MIPE library collection: JJN3_DSMZ cell viability assay (AID 1918966; also: nearly all actives have a fitted effect of over 50% in size); conditions: JJN3 myeloma cells viability, CellTiter-Glo ATP, 48 h; viability, % of DMSO: at 45.8 µM (top of the series)
In short: as §2

[12] = Quantitative High-Throughput drug screen in 47 multiple myeloma cell lines against the NCATS MIPE library collection: Karpas25_ECACC cell viability assay (AID 1918968; also: nearly all actives have a fitted effect of over 35% in size); conditions: Karpas25 myeloma viability, CellTiter-Glo ATP, 48 h; viability (% of control): at 45.8 µM (top of the series)
In short: as §2

[13] = Quantitative High-Throughput drug screen in 47 multiple myeloma cell lines against the NCATS MIPE library collection: ARD_JJKsccE7 cell viability assay (AID 1918929); conditions: ARD myeloma cell line viability, CellTiter-Glo, 48 h; viability: at 45.8 µM (top of the series)
In short: as §2

[14] = Quantitative High-Throughput drug screen in 47 multiple myeloma cell lines against the NCATS MIPE library collection: KMS27_JCRB cell viability assay (AID 1918970); conditions: KMS27 myeloma cells, CellTiter-Glo ATP viability, 48 h; viability (% of DMSO): at 45.8 µM (top of the series); also: nearly all actives have a fitted effect of over 30% in size
In short: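 Viability inhibition screen, 48 h compound exposure, luminescent ATP read-out.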

[15] = Quantitative High-Throughput drug screen in 47 multiple myeloma cell lines against the NCATS MIPE library collection: KMM1_JCRB cell viability assay (AID 1918960); conditions: KMM1 myeloma viability, CellTiter-Glo ATP luminescence, 48 h; viability (% of DMSO): at 45.8 µM (top of the series); also: nearly all actives have a fitted effect of over 30% in size
In short: as §3

[16] = Quantitative High-Throughput drug screen in 47 multiple myeloma cell lines against the NCATS MIPE library collection: JIM3_ECACC cell viability assay (AID 1918963; also: nearly all actives have a fitted effect of over 35% in size)
In short: as §1

[17] = Quantitative High-Throughput drug screen in 47 multiple myeloma cell lines against the NCATS MIPE library collection: H1112_PLB cell viability assay (AID 1918967; also: nearly all actives have a fitted effect of over 30% in size)
In short: as §2

[18] = tested on: Nanoluciferase (engineered Oplophorus gracilirostris luciferase); experiment: Primary Nanoluciferase (NLuc) qHTS assay for identification of artifact compounds. (AID 1845222)
In short: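 Luminescence from secreted NLuc (filtered, 1:55-diluted S16 cell medium) read 5 min after Nano-Glo substrate; compounds preincubated 15 min, RT. Hill fits of inhibition normalized to DMSO and no-enzyme.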

[19] = Primary redox qHTS assay for identification of artifact compounds. (AID 1845223)
In short: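 Redox-cycling detection via DTT (250 uM final) oxidation coupled to Amplex Red (25 uM)/HRP (250 mU/mL) in HBSS. 15 min preincubation plus 30 min after DTT, room temperature. Ex/Em 525/598 nm; 4-parameter Hill fit against DMSO and 10 uM DA3003.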
Potency is read from the fitted curve at half-maximal effect.

CN1CC(=O)N2C(Cc3c([nH]c4ccccc34)[C@H]2c2ccc3c(c2)OCO3)C1=O (stereo partly drawn)
inactive: Potency [1] | Potency [2] | Potency [3] | Potency [4] | Potency [5] | Potency [6] | Potency [7] | Potency [8]
inconclusive: Potency [9] 0.526 µM [cytotoxic, full curve, poor fit] | viability (% of control) [10] 80.4% [cytotoxic] | Potency [11] 20.9 µM [cytotoxic, partial curve, poor fit] | Potency [12] 0.001 µM [cytotoxic]

CC1=C(C(=O)O)N2C(=O)[C@@H](NC(=O)[C@H](N)C3=CCC=CC3)[C@H]2SC1
inconclusive: Potency [1] 0.001 µM [cytotoxic] | Potency [4] 0.001 µM | Potency [13] 0.0012 µM [cytotoxic, full curve, poor fit] | Potency [9] 11.8 µM [rising, single point] | Potency [11] 0.0132 µM [rising, full curve, poor fit]
inactive: Potency [2] | Potency [3] | Potency [5] | Potency [6] | Potency [8] | Potency [12] | Potency [14]

CC(=O)Oc1cc2c(s1)CCN(C(C(=O)C1CC1)c1ccccc1F)C2 (stereo not drawn)
inconclusive: Potency [1] 1.05 µM [cytotoxic, full curve] | Potency [3] 0.743 µM [cytotoxic, full curve] | Potency [13] 1.18 µM [cytotoxic, full curve] | Potency [15] 1.48 µM [cytotoxic, full curve] | viability (% of DMSO) [7] 14.2% [cytotoxic] | Potency [8] 1.32 µM [cytotoxic, full curve] | Potency [16] 4.18 µM [cytotoxic, full curve] | Potency [9] 0.833 µM [cytotoxic, full curve] | Potency [14] 1.48 µM [cytotoxic, full curve]
active: Potency [2] 3.32 µM | Potency [4] 1.87 µM | Potency [5] 1.32 µM | Potency [6] 1.18 µM | Potency [11] 2.35 µM | Potency [17] 2.96 µM

O=c1cc(-c2ccccc2)oc2cc(O)cc(O)c12
active: Potency [13] 26.4 µM
inconclusive: Potency [2] 23.5 µM [cytotoxic, single point] | Potency [5] 0.0059 µM [cytotoxic, full curve, poor fit] | Potency [6] 20.9 µM [cytotoxic, single point] | viability (% of DMSO) [7] 10.1% [cytotoxic] | Potency [9] 18.7 µM [cytotoxic, partial curve, poor fit] | Potency [10] 2.64 µM [cytotoxic, full curve, poor fit] | Potency [11] 0.0105 µM [rising, full curve, poor fit] | Potency [12] 26.4 µM [cytotoxic, single point] | Potency [14] 37.2 µM [cytotoxic, single point]
inactive: Potency [1] | Potency [3] | Potency [8]

O=C(O)c1cccc(-c2noc(-c3ccccc3F)n2)c1
inactive: Potency [9]
inconclusive: Potency [18] 19 µM [inhibitor, single point] | Potency [5] 33.2 µM [cytotoxic, single point] | Potency [8] 7.43 µM [rising, partial curve] | Potency [11] 0.332 µM [cytotoxic, full curve, poor fit] | Potency [12] 37.2 µM [cytotoxic, single point] | Potency [14] 5.9 µM [cytotoxic, partial curve, poor fit]

COC(=O)C1=CO[C@@H](O)[C@@H]2C(CO)=CC[C@@H]12
inconclusive: Potency [1] 20.9 µM [cytotoxic, partial curve] | Potency [2] 18.7 µM [cytotoxic, partial curve] | Potency [3] 26.4 µM [cytotoxic, single point] | Potency [5] 20.9 µM [cytotoxic, partial curve, poor fit] | Potency [13] 33.2 µM [cytotoxic, partial curve, poor fit] | Potency [15] 20.9 µM [cytotoxic, partial curve] | viability, % of DMSO control [8] 55.9% [cytotoxic] | Potency [9] 18.7 µM [cytotoxic, partial curve] | Potency [10] 33.2 µM [cytotoxic, single point] | Potency [12] 20.9 µM [cytotoxic, partial curve] | Potency [14] 20.9 µM [cytotoxic, partial curve]
active: Potency [4] 18.7 µM

O=C1NC(=O)C(=Cc2ccc(-c3ccc(F)cc3)o2)S1
inconclusive: Potency [2] 26.4 µM [cytotoxic, single point] | Potency [3] 33.2 µM [cytotoxic, single point] | Potency [4] 8.33 µM [cytotoxic, partial curve] | Potency [5] 1.32 µM [cytotoxic, full curve, poor fit] | Potency [13] 4.69 µM [cytotoxic, partial curve, poor fit] | Potency [16] 37.2 µM [cytotoxic, partial curve, poor fit] | Potency [9] 0.001 µM [cytotoxic] | Potency [11] 0.0264 µM [cytotoxic, full curve, poor fit] | Potency [17] 23.5 µM [cytotoxic, partial curve] | Potency [12] 33.2 µM [cytotoxic, single point]
active: Potency [15] 5.9 µM | Potency [7] 1.66 µM
inactive: Potency [1] | Potency [8] | Potency [10] | Potency [14]

Cc1oncc1C(=O)Nc1ccc(C(F)(F)F)cc1
active: Potency [3] 20.9 µM | Potency [17] 14.8 µM
inactive: Potency [1] | Potency [4] | Potency [13] | Potency [15] | Potency [9] | Potency [11] | Potency [14]
inconclusive: Potency [2] 5.9 µM [cytotoxic, partial curve, poor fit] | Potency [5] 6.62 µM [cytotoxic, full curve, poor fit] | Potency [7] 5.26 µM [cytotoxic, partial curve, poor fit] | Potency [8] 2.64 µM [cytotoxic, full curve, poor fit] | Potency [16] 6.62 µM [cytotoxic, partial curve, poor fit] | Potency [10] 0.0047 µM [cytotoxic, full curve, poor fit] | Potency [12] 20.9 µM [cytotoxic, partial curve]

CC1=C[C@@H]2[C@@H]([C@@H](O)C[C@@]3(C)[C@H]2C[C@@H](C)[C@]3(O)C(=O)CO)[C@@]2(C)Cc3cnn(-c4ccccc4)c3C=C12
inconclusive: Potency [19] 8.44 µM [activator, partial curve, poor fit] | Potency [1] 20.9 µM [cytotoxic, partial curve] | Potency [2] 33.2 µM [cytotoxic, single point] | Potency [3] 4.69 µM [cytotoxic, partial curve, poor fit] | Potency [5] 20.9 µM [cytotoxic, partial curve, poor fit] | Potency [6] 8.33 µM [cytotoxic, partial curve, poor fit] | Potency [7] 29.6 µM [rising, partial curve, poor fit] | Potency [8] 11.8 µM [cytotoxic, partial curve, poor fit] | Potency [9] 9.35 µM [cytotoxic, partial curve, poor fit] | Potency [10] 26.4 µM [cytotoxic, partial curve, poor fit] | Potency [17] 33.2 µM [cytotoxic, single point]
active: Potency [15] 0.0105 µM | Potency [11] 23.5 µM

CC1(C)NC(=O)N(c2ccc([N+](=O)[O-])c(C(F)(F)F)c2)C1=O
inactive: Potency [4] | Potency [6] | Potency [8] | Potency [14]
inconclusive: Potency [1] 0.0059 µM [cytotoxic, full curve, poor fit] | Potency [2] 11.8 µM [cytotoxic, partial curve, poor fit] | Potency [3] 9.35 µM [cytotoxic, partial curve, poor fit] | Potency [5] 18.7 µM [cytotoxic, partial curve, poor fit] | Potency [7] 0.0132 µM [rising, full curve, poor fit] | Potency [16] 10.5 µM [cytotoxic, partial curve, poor fit] | Potency [11] 3.72 µM [cytotoxic, full curve, poor fit] | Potency [12] 23.5 µM [cytotoxic, single point]
active: Potency [9] 0.235 µM

CCC(CC)[C@H](NC(C)=O)[C@@H]1[C@H](O)[C@@H](C(=O)O)C[C@@H]1N=C(N)N
inconclusive: Potency [1] 0.0023 µM [rising, full curve, poor fit] | Potency [4] 46.9 µM [rising, partial curve, poor fit] | Potency [6] 0.0019 µM [rising, full curve, poor fit] | viability (% of DMSO) [15] 10.7% [cytotoxic] | Potency [7] 0.0066 µM [rising, full curve, poor fit] | Potency [9] 2.64 µM [rising, partial curve, poor fit]
inactive: Potency [2] | Potency [3] | Potency [5] | Potency [8] | Potency [10] | Potency [11] | Potency [17] | Potency [14]
